Measurements reported in PubChem BioAssay AID1508597 (Cure First, 2020).
Screen: 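Survival screen with siRNA in ovarian cancer cells derived from patients, with or without rucaparib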 (primary screen). System: human ovarian carcinoma lines grown from tumours: OCI-P5x (papillary serous) and OCI-C5x (clear cell). Knock-down reagent: siRNA pool against human genes, 1.25 pmol siRNA per well. Timing: 72 h or 96 h, depending on the cell culture. Challenge: rucaparib 20 µM (about IC30) or vehicle, present until read-out. Rucaparib or vehicle: Vehicle. Cell line: OCI-P5x (serous). Read-out: 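Luminescent ATP-based viability assay read 72 or 96 h after transfection, depending on culture, given as normalised percent viability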. Reading the numbers: viability, normalised: higher = more viable cells remaining. Active means: 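a well counts as a hit if its normalised viability is under 80 percent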. Calls: active = viability under 80%; inactive = viability 80% or more.
Shown is an unselected part of the about 2,100 reagents, in one setting of the screen. 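Calls flag viability under 80% in either arm, not effects specific to rucaparib; the reference for percent is not stated.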 Entries without a mark were called inactive. Some reagents were tested in more than one well and are listed for each. Reagent sequences are not shown. Not given: the 100% reference.

gene knocked down,technical replicate,"viability, normalised (%)"
CHD9 (chromodomain helicase DNA binding protein 9),1,79.7 (active)
CHD9 (chromodomain helicase DNA binding protein 9),2,91.4
CHD9 (chromodomain helicase DNA binding protein 9),3,82
PDE6C (phosphodiesterase 6C),1,62.5 (active)
PDE6C (phosphodiesterase 6C),2,61.6 (active)
PDE6C (phosphodiesterase 6C),3,46.2 (active)
DGKH (diacylglycerol kinase eta),1,103
DGKH (diacylglycerol kinase eta),2,104
DGKH (diacylglycerol kinase eta),3,112
KMT2A (lysine methyltransferase 2A),1,40.6 (active)
KMT2A (lysine methyltransferase 2A),2,42.3 (active)
KMT2A (lysine methyltransferase 2A),3,43.3 (active)
AKT1 (AKT serine/threonine kinase 1),1,80.4
AKT1 (AKT serine/threonine kinase 1),2,81.2
AKT1 (AKT serine/threonine kinase 1),3,93.4
RPL11 (ribosomal protein L11),1,45.7 (active)
RPL11 (ribosomal protein L11),2,45.1 (active)
RPL11 (ribosomal protein L11),3,35.4 (active)

Entries listed above marked active:
gene knocked down,technical replicate,"viability, normalised (%)"
CHD9 (chromodomain helicase DNA binding protein 9),1,79.7 (active)
PDE6C (phosphodiesterase 6C),1,62.5 (active)
PDE6C (phosphodiesterase 6C),2,61.6 (active)
PDE6C (phosphodiesterase 6C),3,46.2 (active)
KMT2A (lysine methyltransferase 2A),1,40.6 (active)
KMT2A (lysine methyltransferase 2A),2,42.3 (active)
KMT2A (lysine methyltransferase 2A),3,43.3 (active)
RPL11 (ribosomal protein L11),1,45.7 (active)
RPL11 (ribosomal protein L11),2,45.1 (active)
RPL11 (ribosomal protein L11),3,35.4 (active)

Continued:
gene knocked down,technical replicate,"viability, normalised (%)"
MPLKIP (M-phase specific PLK1 interacting protein),1,72.9 (active)
MPLKIP (M-phase specific PLK1 interacting protein),2,61.3 (active)
MPLKIP (M-phase specific PLK1 interacting protein),3,61.5 (active)
SNRNP200 (small nuclear ribonucleoprotein U5 subunit 200),1,28.3 (active)
SNRNP200 (small nuclear ribonucleoprotein U5 subunit 200),1,32.3 (active)
SNRNP200 (small nuclear ribonucleoprotein U5 subunit 200),2,31 (active)
SNRNP200 (small nuclear ribonucleoprotein U5 subunit 200),2,35.4 (active)
SNRNP200 (small nuclear ribonucleoprotein U5 subunit 200),3,36 (active)
SNRNP200 (small nuclear ribonucleoprotein U5 subunit 200),3,32.8 (active)
